# Measurements from publication PMC7819943, “Rice protein-binding microarrays: a tool to detect cis-acting elements near promoter regions in rice”.
# Chains of the proteins cited; added tags and fusions are not shown.
# UniProt Q0JBA9, entry or part of it: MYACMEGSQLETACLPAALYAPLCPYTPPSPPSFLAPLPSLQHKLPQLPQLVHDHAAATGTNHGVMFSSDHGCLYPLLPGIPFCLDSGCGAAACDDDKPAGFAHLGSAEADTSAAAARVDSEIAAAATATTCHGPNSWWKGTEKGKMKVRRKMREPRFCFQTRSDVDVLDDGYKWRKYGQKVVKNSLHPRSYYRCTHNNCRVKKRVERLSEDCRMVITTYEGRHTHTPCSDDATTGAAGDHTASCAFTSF
# The list shows a part of the results.
# Target: OsWRKY34 (Oryza sativa, UniProt Q0JBA9 1-250)
# Assay: protein-binding microarray (RPBM); PBS, 2% BSA, 51.3 ng/ul salmon testes DNA, 50 uM zinc acetate, 200 nM TF, 25 C, 1 h; high values mean tight binding
# Details: protein: recombinant; tags: N-terminal polyhistidine and DsRed monomer fusion (pET32a); label: CyDye5-dUTP incorporated in the synthesized complementary strand; 3' TTTTT single-stranded linker to array surface; dsDNA, one strand shown
# Method in brief: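 For the binding signal, per-feature fluorescence intensity was read in arbitrary units on an Axon 4000B scanner. Before scanning, a 2% BSA-blocked custom Agilent array made double-stranded with Cy5-dUTP was washed after 1 h at 25 °C with 200 nM protein and 50 µM zinc acetate. The proteins were Ni–NTA-purified transcription factors with N-terminal polyhistidine and DsRed fusions, expressed in E. coli BL21-CodonPlus.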
row,Sequence,binding signal
1,ATCCATCCACCGCCACCACGCCGATCGATCTCCCCGCCGCCGGAGTCACCTAGTGCAG,11100 fluorescence intensity (a.u.)
2,AATAACAACACCTTCCATAATATTTCTCCCAGGTATAACACGGAGTCACCTAGTGCAG,8840 fluorescence intensity (a.u.)
3,TTCCTATATTTCTTTTTTGGTTCTTGTATTTATCATCTGACGGAGTCACCTAGTGCAG,9480 fluorescence intensity (a.u.)
4,GATATGATATGATATTTGTTGGGTTAGTCGATATATTCATCGGAGTCACCTAGTGCAG,9300 fluorescence intensity (a.u.)
5,TTATGTTAACCTTGTTGTTTCTTACATTAATGCACATAATCGGAGTCACCTAGTGCAG,8940 fluorescence intensity (a.u.)
6,CCTCATCATCTGCCCGTGTCCACCGCCCACCGTCGGCCCGCGGAGTCACCTAGTGCAG,10100 fluorescence intensity (a.u.)
7,AGGTGGTGGTGGTGGCAGAGACGTGCGCTCGAACGATTTCCGGAGTCACCTAGTGCAG,9910 fluorescence intensity (a.u.)
8,ACCCTAGCCACCCCGCGTCGCCCGCCTCGGCGCGCCCAAACGGAGTCACCTAGTGCAG,9260 fluorescence intensity (a.u.)
9,CGCCATTGCCACCAAGTTCCCTATAGCACAACGACCTTATCGGAGTCACCTAGTGCAG,9200 fluorescence intensity (a.u.)
10,TGGTGGGCGGTGGAGTTATTTTCTTAATAGAGCATTGAGACGGAGTCACCTAGTGCAG,23900 fluorescence intensity (a.u.)
11,CCGTTTTCATCCCTAGTCCGGCCACATTATTTGGAGACAACGGAGTCACCTAGTGCAG,8990 fluorescence intensity (a.u.)
12,CACGGTAACTTTTAGTAGATGGGTTGGTGATATATTTTTTCGGAGTCACCTAGTGCAG,8370 fluorescence intensity (a.u.)
13,GTTGACTAGGAGGAGGAGGAGGAGGAGGAGGAGGAGGGATCGGAGTCACCTAGTGCAG,9160 fluorescence intensity (a.u.)
14,GATGTTTTCTTAGGTCTCTTTTGACTTTGAATGTGTTCCTCGGAGTCACCTAGTGCAG,8300 fluorescence intensity (a.u.)
15,TCACTTGCCCTTGCATTACTTACAACTTGCTTCACGAAAACGGAGTCACCTAGTGCAG,8300 fluorescence intensity (a.u.)
16,GATTCCCACATCTGGTTCTTCTACTTAGTGGCTTCGACCTCGGAGTCACCTAGTGCAG,8920 fluorescence intensity (a.u.)
17,CCCTGCTCTGCCACGCCCGCCACCGTCTGCCGGCCTCTACCGGAGTCACCTAGTGCAG,10100 fluorescence intensity (a.u.)
18,GCTTGGACAAGTACTGCTTTTCTTGATCTTTTGCTTTACACGGAGTCACCTAGTGCAG,11900 fluorescence intensity (a.u.)
19,TGCGATAGGTCTTCAGAAATGCCTCTGTGTTTATCATTGACGGAGTCACCTAGTGCAG,8180 fluorescence intensity (a.u.)
20,TACGTACATACCACCCTGCGCTTGTCATCAAACAACGGTCCGGAGTCACCTAGTGCAG,9110 fluorescence intensity (a.u.)
21,TTGAACCTTCATCATCTGCAATTTTCCAGGTTTATTTTAACGGAGTCACCTAGTGCAG,8330 fluorescence intensity (a.u.)

row,Sequence,binding signal
1,AAAACTCCCTCCGATTTTATTTGTTTGATGTTGGTTAGTTCGGAGTCACCTAGTGCAG,12500 fluorescence intensity (a.u.)
2,CGCCGCCGCTCCAGCTCCAGCCGCCCGTGCTCCCTCGCGGCGGAGTCACCTAGTGCAG,8200 fluorescence intensity (a.u.)
3,AATTCCACTTGTATTTTATTAGACTTACCTACATACAAATCGGAGTCACCTAGTGCAG,11200 fluorescence intensity (a.u.)
4,CCCTTCTTTCTTTCTCTTTTCCCTCCCTTTCTTCTTTTTCCGGAGTCACCTAGTGCAG,8950 fluorescence intensity (a.u.)
5,TGTGTGGTTGCGCGGCCAATTTTAGTTCAGGCTTCAGGGCCGGAGTCACCTAGTGCAG,8610 fluorescence intensity (a.u.)
6,GACGAGAGCCCATGGACATCATCTTTTCGCTTATGCTTATCGGAGTCACCTAGTGCAG,10200 fluorescence intensity (a.u.)
7,CTTCCCATGTTTTTTTTAATTTCTAATTTTAGTTATTTGTCGGAGTCACCTAGTGCAG,9650 fluorescence intensity (a.u.)
8,TTTATAAGAAACGGCCGTGTTTGGTGGTGGGTGTTGGGAACGGAGTCACCTAGTGCAG,11900 fluorescence intensity (a.u.)
9,TCACCAAACACCTCGATCCATCCCTCTACCCTTCAAGAAACGGAGTCACCTAGTGCAG,9270 fluorescence intensity (a.u.)
10,GAACATGCTCACTAGGAATATTTGCTTATCTTCTTAAAACCGGAGTCACCTAGTGCAG,8100 fluorescence intensity (a.u.)
11,CCTCGAAAAGAGAAGGTGGAGGGGATGGGGTGAATTTAAACGGAGTCACCTAGTGCAG,11700 fluorescence intensity (a.u.)
12,GAACTAAACATGGCCTTACTAACCATTGACGTCACGATTCCGGAGTCACCTAGTGCAG,8260 fluorescence intensity (a.u.)
13,CCTTGCGCGCACCACGCCACCACCTCCACCTCCACTTCGCCGGAGTCACCTAGTGCAG,11400 fluorescence intensity (a.u.)
14,TCCGCGCCTCGCCTCGCCACCCGCATCGCCATCTCGCACCCGGAGTCACCTAGTGCAG,8520 fluorescence intensity (a.u.)
15,CCTCGCGTTTTGTGTCGTTCCGAGGCAACGTCGACGGTCGCGGAGTCACCTAGTGCAG,8280 fluorescence intensity (a.u.)
16,GGCGTATTTGCTCATTTGCTCTCTCTCTTCCTCTCCTCTCCGGAGTCACCTAGTGCAG,8550 fluorescence intensity (a.u.)
17,ATCCGCTTCTGGAAGTCTCGAGGCCTCTCTCTCTCTCTCTCGGAGTCACCTAGTGCAG,8580 fluorescence intensity (a.u.)
18,CACTGTCGTTATTTGCTTTAGCCCAACCTGTCACTGTTGTCGGAGTCACCTAGTGCAG,11100 fluorescence intensity (a.u.)
19,GGAGACGGCGTGGCGAGGAGGCGGGATGGGGAGGCGGCGCCGGAGTCACCTAGTGCAG,10100 fluorescence intensity (a.u.)
20,TTCCTTATTTCGTATAAACTATCTCCTAATTAATAAGAAGCGGAGTCACCTAGTGCAG,8110 fluorescence intensity (a.u.)
21,GGCGTTCACTTCACCGTGGGATCGAATCATCCAAAAACATCGGAGTCACCTAGTGCAG,8150 fluorescence intensity (a.u.)

# Exported with tabs: entries from further up.
row	Sequence	binding signal
17	CCCTGCTCTGCCACGCCCGCCACCGTCTGCCGGCCTCTACCGGAGTCACCTAGTGCAG	10100 fluorescence intensity (a.u.)
18	GCTTGGACAAGTACTGCTTTTCTTGATCTTTTGCTTTACACGGAGTCACCTAGTGCAG	11900 fluorescence intensity (a.u.)
